Reference: publication PMC6193001
No constants are given. Whether binding was seen depends on the method and setting. Binding seen in cells or lysates may run through a third protein. Some entries that bind do so weakly or less than the wild type.

Molecular target: T1, serine protease inhibitor Kazal type I (SPINK1) (human) (UniProt P00995)
T1 sequence: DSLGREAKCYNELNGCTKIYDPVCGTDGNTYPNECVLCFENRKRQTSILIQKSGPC
Assay: co-IP; anti-SPINK1 antibody (Abnova, 4 ug) added to cleared whole cell lysates of PC3 cells treated for 3 days by the CM of PSC27 sublines; lysis buffer 40 mM HEPES pH 7.5, 120 mM NaCl, 1 mM EDTA, 0.3% CHAPS; protein A/G-agarose, 4 °C; immunoblot of EGFR and SPINK1

Q: With “EGFR (from UniProt P00533 25-1210) (receptor)” as the substance, how does the binding read?
A: binds
